In assay [1] the target is Gal4-c-SMRT (aa 981 to C terminus) (human). Nature of the assay: mammalian two-hybrid in CV-1 cells (with VP16-USP).
Assay [2] has the same target. As to the kind of experiment: mammalian two-hybrid in CV-1 cells (with VP16-USP), FIG. 6B.
Assay [3] concerns the target SMRT, original yeast two-hybrid clone (C-SMRT, aa 981 to C-terminal end) (human) (UniProt Q9Y618). As to the kind of experiment: yeast two-hybrid, β-galactosidase, FIG. 7.

Chains of the proteins cited; added tags and fusions are not shown. Lines headed by an entry give the natural chain unless they say otherwise; changes in a name come on top.
UniProt Q9Y618: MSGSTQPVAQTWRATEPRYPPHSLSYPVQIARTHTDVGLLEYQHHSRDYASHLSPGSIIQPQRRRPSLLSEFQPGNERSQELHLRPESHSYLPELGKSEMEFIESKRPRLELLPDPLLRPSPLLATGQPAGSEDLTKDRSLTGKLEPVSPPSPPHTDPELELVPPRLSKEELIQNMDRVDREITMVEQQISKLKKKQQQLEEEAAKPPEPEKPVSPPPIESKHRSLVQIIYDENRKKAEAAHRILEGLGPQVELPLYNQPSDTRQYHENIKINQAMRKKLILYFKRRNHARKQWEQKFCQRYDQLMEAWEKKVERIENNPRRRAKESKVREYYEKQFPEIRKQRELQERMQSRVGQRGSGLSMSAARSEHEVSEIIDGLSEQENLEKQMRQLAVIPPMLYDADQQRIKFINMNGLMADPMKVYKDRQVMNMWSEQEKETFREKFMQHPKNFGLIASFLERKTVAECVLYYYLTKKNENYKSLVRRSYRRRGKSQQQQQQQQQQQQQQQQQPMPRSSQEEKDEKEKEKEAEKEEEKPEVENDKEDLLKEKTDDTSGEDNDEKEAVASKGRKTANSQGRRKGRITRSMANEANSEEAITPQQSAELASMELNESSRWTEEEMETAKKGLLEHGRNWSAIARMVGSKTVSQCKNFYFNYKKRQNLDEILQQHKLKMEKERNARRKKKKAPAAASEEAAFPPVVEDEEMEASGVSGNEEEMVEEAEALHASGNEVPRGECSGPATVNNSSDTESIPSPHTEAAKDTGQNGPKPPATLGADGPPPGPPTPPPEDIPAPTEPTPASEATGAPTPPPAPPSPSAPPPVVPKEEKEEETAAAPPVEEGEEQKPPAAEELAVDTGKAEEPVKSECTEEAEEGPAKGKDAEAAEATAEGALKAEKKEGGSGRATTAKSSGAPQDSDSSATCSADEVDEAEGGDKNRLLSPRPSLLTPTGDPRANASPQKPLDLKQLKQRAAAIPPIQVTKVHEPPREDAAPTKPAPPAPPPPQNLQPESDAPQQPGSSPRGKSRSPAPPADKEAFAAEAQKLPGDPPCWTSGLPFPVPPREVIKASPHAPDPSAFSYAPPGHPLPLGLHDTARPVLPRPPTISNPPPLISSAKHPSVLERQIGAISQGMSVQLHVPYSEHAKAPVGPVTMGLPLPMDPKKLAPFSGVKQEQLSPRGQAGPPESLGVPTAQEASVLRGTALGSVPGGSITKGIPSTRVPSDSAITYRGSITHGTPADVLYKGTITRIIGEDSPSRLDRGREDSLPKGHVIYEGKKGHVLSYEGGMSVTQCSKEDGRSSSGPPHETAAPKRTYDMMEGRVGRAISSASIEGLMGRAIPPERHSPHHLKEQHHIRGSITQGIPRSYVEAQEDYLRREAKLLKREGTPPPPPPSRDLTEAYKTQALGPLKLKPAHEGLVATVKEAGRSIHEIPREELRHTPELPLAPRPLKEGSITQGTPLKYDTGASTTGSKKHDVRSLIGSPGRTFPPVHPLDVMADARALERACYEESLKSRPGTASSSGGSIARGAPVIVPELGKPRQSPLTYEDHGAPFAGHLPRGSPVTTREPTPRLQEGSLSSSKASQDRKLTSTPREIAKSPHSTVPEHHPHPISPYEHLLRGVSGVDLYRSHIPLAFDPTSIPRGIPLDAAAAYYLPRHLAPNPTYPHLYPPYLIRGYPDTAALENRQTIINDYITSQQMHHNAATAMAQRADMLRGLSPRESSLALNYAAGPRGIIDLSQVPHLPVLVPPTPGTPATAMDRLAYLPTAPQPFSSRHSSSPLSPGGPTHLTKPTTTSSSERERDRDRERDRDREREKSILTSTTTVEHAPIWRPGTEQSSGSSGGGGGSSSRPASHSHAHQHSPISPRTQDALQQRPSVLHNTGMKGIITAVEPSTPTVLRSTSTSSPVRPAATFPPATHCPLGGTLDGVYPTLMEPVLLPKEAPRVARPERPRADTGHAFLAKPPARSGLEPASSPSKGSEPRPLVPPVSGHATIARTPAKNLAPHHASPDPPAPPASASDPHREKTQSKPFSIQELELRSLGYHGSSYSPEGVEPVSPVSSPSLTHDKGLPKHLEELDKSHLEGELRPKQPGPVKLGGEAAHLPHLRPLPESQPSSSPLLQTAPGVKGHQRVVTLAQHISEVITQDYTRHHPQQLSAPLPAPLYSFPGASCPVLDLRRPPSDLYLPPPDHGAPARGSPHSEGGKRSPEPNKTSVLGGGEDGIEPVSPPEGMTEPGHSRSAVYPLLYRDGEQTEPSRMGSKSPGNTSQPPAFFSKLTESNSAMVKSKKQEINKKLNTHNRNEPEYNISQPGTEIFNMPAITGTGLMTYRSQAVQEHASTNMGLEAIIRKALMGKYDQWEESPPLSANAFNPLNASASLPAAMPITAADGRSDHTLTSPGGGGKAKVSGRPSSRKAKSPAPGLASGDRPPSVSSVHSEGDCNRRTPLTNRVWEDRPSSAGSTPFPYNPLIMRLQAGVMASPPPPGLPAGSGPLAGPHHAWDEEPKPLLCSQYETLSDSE

These are yes or no findings as the source states them, for the method shown. Some results given as binding are weak or reduced against the parent protein; the word gives no strength. For part of these data: Tags and fused reporters may be left off the sequences shown.

B1: EcR (wild-type ecdysone receptor, EcRB1) (receptor)
chain: MKRRWSNNGGFMRLPEESSSEVTSSSNGLVLPSGVNMSPSSLDSHDYCDQDLWLCGNESGSFGGSNGHGLSQQQQSVITLAMHGCSSTLPAQTTIIPINGNANGNGGSTNGQYVPGATNLGALANGMLNGGFNGMQQQIQNGHGLINSTTPSTPTTPLHLQQNLGGAGGGGIGGMGILHHANGTPNGLIGVVGGGGGVGLGVGGGGVGGLGMQHTPRSDSVNSISSGRDDLSPSSSLNGYSANESCDAKKSKKGPAPRVQEELCLVCGDRASGYHYNALTCEGCKGFFRRSVTKSAVYCCKFGRACEMDMYMRRKCQECRLKKCLAVGMRPECVVPENQCAMKRREKKAQKEKDKMTTSPSSQHGGNGSLASGGGQDFVKKEILDLMTCEPPQHATIPLLPDEILAKCQARNIPSLTYNQLAVIYKLIWYQDGYEQPSEEDLRRIMSQPDENESQTDVSFRHITEITILTVQLIVEFAKGLPAFTKIPQEDQITLLKACSSEVMMLRMARRYDHSSDSIFFANNRSYTRDSYKMAGMADNIEDLLHFCRQMFSMKVDNVEYALLTAIVIFSDRPGLEKAQLVEAIQSYYIDTLRIYILNRHCGDSMSLVFYAKLLSILTELRTLGNQNAEMCFSLKLKNRKLPKFLEEIWDVHAIPPSVQSHLQITQEENERLERAERMRASVGGAITAGIDCDSASTSAAAAAAQHQPQPQPQPQPSSLTQNDSQHQTQPQLQPQLPPQLQGQLQPQLQPQLQTQLQPQIQPQPQLLPVSAPVPASVTAPGSLSAVSTSSEYMGGSAAIGPITPATTSSITAAVTASSTTSAVPMGNGVGVGVGVGGNVSMYANAQTAMALMGVALHSHQEQLIGGVAVKSEHSTTA
Turning to B1, the binding entry in assay [1] and in assay [2] was “binds” each time.

B2: pAS-EcR (Gal4-DBD fused to aa 223-878 of EcRB1) (protein, Drosophila, UniProt P34021 223-878, looked up, not shown: large carriers)
chain: SISSGRDDLSPSSSLNGYSANESCDAKKSKKGPAPRVQEELCLVCGDRASGYHYNALTCEGCKGFFRRSVTKSAVYCCKFGRACEMDMYMRRKCQECRLKKCLAVGMRPECVVPENQCAMKRREKKAQKEKDKMTTSPSSQHGGNGSLASGGGQDFVKKEILDLMTCEPPQHATIPLLPDEILAKCQARNIPSLTYNQLAVIYKLIWYQDGYEQPSEEDLRRIMSQPDENESQTDVSFRHITEITILTVQLIVEFAKGLPAFTKIPQEDQITLLKACSSEVMMLRMARRYDHSSDSIFFANNRSYTRDSYKMAGMADNIEDLLHFCRQMFSMKVDNVEYALLTAIVIFSDRPGLEKAQLVEAIQSYYIDTLRIYILNRHCGDSMSLVFYAKLLSILTELRTLGNQNAEMCFSLKLKNRKLPKFLEEIWDVHAIPPSVQSHLQITQEENERLERAERMRASVGGAITAGIDCDSASTSAAAAAAQHQPQPQPQPQPSSLTQNDSQHQTQPQLQPQLPPQLQGQLQPQLQPQLQTQLQPQIQPQPQLLPVSAPVPASVTAPGSLSAVSTSSEYMGGSAAIGPITPATTSSITAAVTASSTTSAVPMGNGVGVGVGVGGNVSMYANAQTAMALMGVALHSHQEQLIGGVAVKSEHSTTA
In the case of B2, the binding result in assay [3] is on record as “binds”.

These data come from patent US7314747.
